# Data: PubChem BioAssay AID1935 (Broad Institute, 2009)
# In all, about 1,200 compounds were measured (“activity change, negative = cytotoxic”: median about -53, highest 2% from about 78 on). Some of the results follow. Entries with a potency or affinity are not part of this list. The source made no clear call on entries shown without one.
# Assay: BJ-TERT-LT-ST fibroblast viability loss – cell-based, RAS-independent, luminescence, dose response (AID 1935)
# Details: ATP luminescence; at 15 µM (top of the series)
row,SMILES,"activity change, negative = cytotoxic [%]"
1,COc1cc2c(c(OC)c1OC)-c1ccc(O)c(=O)cc1C(NC(C)=O)CC2 (stereo not drawn),-56.1
2,C/C=C(\C)C(=O)N[C@@H](c1ccccc1)[C@@H](O)C(=O)O[C@H]1C[C@@]2(O)[C@@H](OC(=O)c3ccccc3)C3[C@](C)(C(=O)[C@H](OC(C)=O)C(=C1C)C2(C)C)[C@H](O)C[C@H]1OC[C@@]31OC(C)=O (stereo partly drawn),-61
3,C=C1C(=O)O[C@@H]2C[C@@H](C)[C@@H]3C=CC(=O)[C@@]3(C)[C@@H](OC(=O)CC(=O)O[C@H]3[C@@H]4C(=C)C(=O)O[C@@H]4C[C@@H](C)[C@@H]4C=CC(=O)[C@]43C)[C@H]12,-101
